Measurements reported in article doi:10.1101/358242.
Results are given in words; binding and its absence hold for the method and conditions named. Binding calls can cover weak binding; strength is not graded here. Where a sequence is shown, tags or fusion partners need not be part of it. For some of these results: In cells and extracts the contact can be indirect.

Amino acid sequences for entries named in this document (tags omitted). A change or cut given only in a name is not applied to a line headed by its entry.
UniProt Q8N635: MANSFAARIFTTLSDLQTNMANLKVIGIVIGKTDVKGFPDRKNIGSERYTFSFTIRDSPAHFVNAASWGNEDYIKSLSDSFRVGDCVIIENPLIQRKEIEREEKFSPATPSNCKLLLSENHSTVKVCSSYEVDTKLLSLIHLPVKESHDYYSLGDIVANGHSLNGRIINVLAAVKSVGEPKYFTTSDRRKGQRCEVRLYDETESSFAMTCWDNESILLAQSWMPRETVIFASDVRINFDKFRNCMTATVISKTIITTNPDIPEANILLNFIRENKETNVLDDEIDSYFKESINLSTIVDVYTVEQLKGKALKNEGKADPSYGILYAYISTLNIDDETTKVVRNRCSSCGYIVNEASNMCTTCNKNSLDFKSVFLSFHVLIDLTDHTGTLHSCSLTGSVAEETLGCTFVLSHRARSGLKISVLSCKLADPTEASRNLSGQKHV

What was measured:
[1] = biological target: MYC-FLAG-tagged human MEIOB ΔC helix (human); assay: co-IP
[2] = biological target: MYC-FLAG-tagged full-length human MEIOB (human) (UniProt Q8N635); assay: co-IP
[3] = biological target: GST-MEIOB (coexpressed with SPATA22 in insect cells) (UniProt Q8N635); assay: native gel or EMSA
[4] = biological target: GST-MEIOB (coexpressed with SPATA22 in insect cells) (UniProt Q8N635); assay: pull-down

binding [1]	binding [2]	binding [3]	binding [4]	Binder
binds	binds	–	–	3xHA-tagged full-length human SPATA22 (protein, UniProt Q8NHS9 1-363) MKRSLNENSARSTAGCLPVPLFNQKKRNRQPLTSNPLKDDSGISTPSDNYDFPPLPTDWAWEAVNPELAPVMKTVDTGQIPHSVSRPLRSQDSVFNSIQSNTGRSQGGWSYRDGNKNTSLKTWNKNDFKPQCKRTNLVANDGKNSCPVSSGAQQQKQLRIPEPPNLSRNKETELLRQTHSSKISGCTMRGLDKNSALQTLKPNFQQNQYKKQMLDDIPEDNTLKETSLYQLQFKEKASSLRIISAVIESMKYWREHAQKTVLLFEVLAVLDSAVTPGPYYSKTFLMRDGKNTLPCVFYEIDRELPRLIRGRVHRCVGNYDQKKNIFQCVSVRPASVSEQKTFQAFVKIADVEMQYYINVMNET
–	–	binds	binds	SPATA22 (coexpressed with GST-MEIOB in insect cells) (protein, UniProt Q8NHS9 1-363) MKRSLNENSARSTAGCLPVPLFNQKKRNRQPLTSNPLKDDSGISTPSDNYDFPPLPTDWAWEAVNPELAPVMKTVDTGQIPHSVSRPLRSQDSVFNSIQSNTGRSQGGWSYRDGNKNTSLKTWNKNDFKPQCKRTNLVANDGKNSCPVSSGAQQQKQLRIPEPPNLSRNKETELLRQTHSSKISGCTMRGLDKNSALQTLKPNFQQNQYKKQMLDDIPEDNTLKETSLYQLQFKEKASSLRIISAVIESMKYWREHAQKTVLLFEVLAVLDSAVTPGPYYSKTFLMRDGKNTLPCVFYEIDRELPRLIRGRVHRCVGNYDQKKNIFQCVSVRPASVSEQKTFQAFVKIADVEMQYYINVMNET
